Values of other authors, collected in patent US20170349949A1, “METHODS OF SELECTING SUBJECTS FOR TREATMENT WITH METABOLIC MODULATORS” (Partikula LLC, priority 2016, published 2017).
At least one compound was matched to its structure with a doubt left.

Test system: PDK
Settings: dose-dependent; cited from earlier work

## O=C(O)C(Cl)Cl [DCA, dichloroacetate]
  concentration at which DCA activates PDH by inhibiting PDK: 10 to 250 µM
